From patent EP3539562A1, “IMMUNOTHERAPEUTIC PEPTIDES” (Eberhard Karls Universität Tübingen Medizinische Fakultät, priority 2018, dated 2019)
Not every detail of the peptide structures is certain; ends, links or a residue may be inferred. Where no end group is shown, it is not given here.

Tested on: healthy donor PBMCs
Assay: IFNγ ELISPOT assay after 12 day stimulation
Assay type: cell-based, human
Conditions: result in words

In the case of “VYPRYSNFI [VYPRYSNFI, Val-Tyr-Pro-Arg-Tyr-Ser-Asn-Phe-Ile]”, the “IFNγ secretion / immunogenicity” value was “stimulated healthy donor PBMCs to secrete IFNγ” and the “IFNγ secretion / immunogenicity” value (listed as MeV-L peptide) was “highly immunogenic”.
